# Assay results published in patent US20210106547A1, “Managing Cardiovascular Conditions Associated with Kidney Disease” (Emory University, priority 2019, published 2021).
# Experiments:
# C57BL/6 wild type mice [1] = assay: Phenotypic characteristics of sham and 5/6Nx mice 8 weeks after 5/6 nephrectomy, DMTU by osmotic mini pump; format: in vivo, mouse
# Procedure: (§1) Experiment of C57BL/6 wild type mice. Mice underwent 5/6 nephrectomy surgery. Mice were fed 14% protein diet (0 weeks to 2 weeks), 23% protein diet (2 weeks to 6 weeks), and 40% protein diet (6 weeks to 8 weeks). Mice drank 1% NaCl water one week to six weeks after second surgery, and dimethylthiourea (DMTU; UT-A inhibitor) was administered by osmotic mini pump.
# (§2) Since an increase in UT-A is associated with an increase in fibrosis proteins in vitro and in vivo, experiments were performed to determine whether inhibition of UT-A could prevent fibrosis in the heart of CKD mice. Mice were randomly divided into four cohorts: sham+vehicle, sham+DMTU, 5/6Nx+vehicle, and 5/6Nx+DMTU. Mini-pumps were used for DMTU administration (100 mg/kgBW/day). The phenotypic characteristics of mice were determined 8 weeks after completing the 5/6Nx (Table 1).
# C57BL/6 wild type mice [2] = assay: Cardiac echocardiographic analysis of mice after 5/6 nephrectomy and DMTU treatment; format: in vivo, mouse
# Procedure: as §1, §2
# Both intraventricular septum (IVS) and posterior wall thicknesses (PW) were greatest in 5/6Nx+vehicle than all other three groups (Table 2).
smiles,measurement,setting,value
"CNC(=S)NC [DMTU, N,N′-dimethylthiourea]",Final BW,C57BL/6 wild type mice [1]; 5/6Nx + DMTU,26.4 ± 0.5 g
same,Final BW,C57BL/6 wild type mice [1]; sham + DMTU,25.9 ± 1.1 g
same,BW,C57BL/6 wild type mice [2]; 5/6Nx + DMTU,25.8 ± 0.6 g
same,BW,C57BL/6 wild type mice [2]; sham + DMTU,25.8 ± 1.2 g
